# Earlier results, collected in patent US11932845B2, “Microorganisms and methods for production of 4-hydroxybutyrate, 1,4-butanediol and related compounds” (priority 2012, dated 2024).
# Read-outs that look alike come from different tables or passages of the source.
# B1: NDH-2 (protein, UniProt P00393 2-434, looked up)
# Type II NADH:quinone …: TTPLKKIVIVGGGAGGLEMATQLGHKLGRKKKAKITLVDRNHSHLWKPLLHEVATGSLDEGVDALSYLAHARNHGFQFQLGSVIDIDREAKTITIAELRDEKGELLVPERKIAYDTLVMALGSTSNDFNTPGVKENCIFLDNPHQARRFHQEMLNLFLKYSANLGANGKVNIAIVGGGATGVELSAELHNAVKQLHSYGYKGLTNEALNVTLVEAGERILPALPPRISAAAHNELTKLGVRVLTQTMVTSADEGGLHTKDGEYIEADLMVWAAGIKAPDFLKDIGGLETNRINQLVVEPTLQTTRDPDIYAIGDCASCPRPEGGFVPPRAQAAHQMATCAMNNILAQMNGKPLKNYQYKDHGSLVSLSNFSTVGSLMGNLTRGSMMIEGRIARFVYISLYRMHQIALHGYFKTGLMMLVGSINRVIRPRLKLH
# System: NADH dehydrogenases and cytochrome oxidase
# Conditions: aerobic growth, cited from earlier work
molecule,measurement,setting,value
B1,Concentration,Limited glucose (early stationary),0.70 ± 0.03 μmol/s/mg of protein
same,Concentration,Standard glucose (early stationary: 8 h),0.88 ± 0.01 μmol/s/mg of protein
same,Concentration,Standard glucose (exponential: 3 h),1.11 ± 0.06 μmol/s/mg of protein
same,Concentration,Standard glucose (exponential: 5 h),0.86 ± 0.03 μmol/s/mg of protein
